For the test, the target named is T1, CD95 (human (endogenous in SUIT-020)), P25445.
T1 chain: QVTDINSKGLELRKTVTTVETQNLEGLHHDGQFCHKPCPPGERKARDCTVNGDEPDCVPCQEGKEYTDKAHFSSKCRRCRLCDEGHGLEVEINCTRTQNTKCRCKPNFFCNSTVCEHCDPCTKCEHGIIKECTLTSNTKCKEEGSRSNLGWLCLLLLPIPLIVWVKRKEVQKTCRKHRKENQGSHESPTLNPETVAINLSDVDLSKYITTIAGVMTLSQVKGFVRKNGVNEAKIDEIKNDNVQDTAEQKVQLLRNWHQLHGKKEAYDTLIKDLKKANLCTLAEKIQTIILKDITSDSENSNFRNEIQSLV
Kind of test: co-IP; DISC-IP: 2 µg anti-APO-1 antibodies and Protein-A Sepharose beads added to total cellular lysates, overnight at 4 °C, four washes with PBS, Western Blot; SUIT-020 cells treated with DL, gemcitabine, FLIPinB and/or S63845. Conditions: remark: other sources report otherwise.

These are yes or no findings as the source states them, for the method shown. Binding seen in cells or lysates may run through a third protein. Some binding calls cover weakened binding; strength is not graded here.

B1: caspase-8 (procaspase-8 and its cleavage products p43/p41, p30 and p18), Q14790 1-479 (enzyme)
chain: MDFSRNLYDIGEQLDSEDLASLKFLSLDYIPQRKQEPIKDALMLFQRLQEKRMLEESNLSFLKELLFRINRLDLLITYLNTRKEEMERELQTPGRAQISAYRVMLYQISEEVSRSELRSFKFLLQEEISKCKLDDDMNLLDIFIEMEKRVILGEGKLDILKRVCAQINKSLLKIINDYEEFSKERSSSLEGSPDEFSNGEELCGVMTISDSPREQDSESQTLDKVYQMKSKPRGYCLIINNHNFAKAREKVPKLHSIRDRNGTHLDAGALTTTFEELHFEIKPHDDCTVEQIYEILKIYQLMDHSNMDCFICCILSHGDKGIIYGTDGQEAPIYELTSQFTGLKCPSLAGKPKVFFIQACQGDNYQKGIPVETDSEEQPYLEMDLSSPQTRYIPDEADFLLGMATVNNCVSYRNPAEGTWYIQSLCQSLRERCPRGDDILTILTEVNYEVSNKDDKKNMGKQMPQPTFTLRKKLVFPSD
With B1, the binding result is “binds”.

Values taken from publication PMC11698904.
